The campaign covered roughly 320,000 compounds. About 2,100 (0.66%) were called active. This list was built around the results that the source calls inconclusive (neither active nor inactive); the mix of calls is not that of the screen. The call rests on the fitted dose curve; in most records, active means well fitted inhibition curve with a large enough effect in the signal ratio, with a control signal flat (not every such curve was filed as active); inconclusive means small, poorly fitted or top-dose-only effect, or effect the other way, or a change in a side signal; inactive means flat fitted curve, though single readings scatter; the % refers to the signal ratio. Potencies of inconclusive entries are doubtful fits and often do not repeat.
test: qHTS Assay for Lipid Storage Modulators in Drosophila S3 Cells; settings: BODIPY lipid droplet fluorescence, 18-24 h, cells fed with added oleic acid; lipid storage change, negative = inhibition: at 46.1 µM (top of the series) unless noted
How it was run: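 Drosophila S3 cells got compounds at several concentrations plus oleic acid (400 uM solution). Laser-scanning cytometry with 488 nm excitation read lipid droplets at 500-530 nm and cells at 575-640 nm. Percent activity was relative to 20 uM Triacsin C.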
On the % scale 0 is the no-effect control and ±100 the full control effect; potency means the concentration at half of the fitted maximal effect.

Row | Compound | Potency | lipid storage change, negative = inhibition
1 | CCOc1cccc2cc(C(=O)N3CCOCC3)c(=O)oc12 | inconclusive: 0.0046 µM [falling, full curve, poor fit] | –
2 | CCC(=O)NC1CCN(C(=S)NC)CC1 | – | inconclusive: 35.4%
3 | COc1ccc(-c2cc(C(=O)Nc3c(C)n(C)n(-c4ccccc4)c3=O)c3ccccc3n2)cc1 | – | inconclusive: 256%
4 | COc1cc(C2=NOC(C(=O)Nc3c(C)n(C)n(-c4ccccc4)c3=O)C2)cc(OC)c1OC (stereo unspecified) | – | inconclusive: 0.621%
5 | Cc1onc(-c2ccccc2)c1C(=O)Nc1nnc(CC(C)(C)C)s1 | inconclusive: 6.51 µM [falling, single point] | –
6 | Cc1ccsc1/C=N/NC(=O)c1ccc2nc[nH]c2c1 | inconclusive: 20.6 µM [activator, single point] | –
7 | COc1ccc(NC(=O)CC2C(=O)N(C)C(=S)N2CCc2ccccc2)cc1 (stereo unspecified) | – | inconclusive: 2.52%
8 | CC(=O)N1CCc2cc(Br)cc(S(=O)(=O)N3CCCCCC3)c21 | – | inactive
9 | CC(C)(C)c1cccc(Oc2nn[nH]n2)c1 | – | inconclusive: 32.6%
10 | C[C@]12CC[C@@H]3c4ccc(O)cc4[C@@H](O)C[C@H]3[C@@H]1CC[C@@H]2O | – | inconclusive: -15.4%
11 | COc1cc(C(=O)/C=C/c2cccnc2)ccc1O | – | inconclusive: 115%
12 | CCNS(=O)(=O)c1ccc2nc(NC(=O)/C=C/c3cc(OC)c(OC)c(OC)c3)sc2c1 | inconclusive: 2.91 µM [falling, partial curve, poor fit] | –
13 | CC1CN(S(=O)(=O)c2cccc(C(=O)Nc3ccccc3N3CCCCC3)c2)CC(C)O1 (stereo unspecified) | active: 23.1 µM | –
14 | CCOC(=O)C1=C(O)C(=O)NC(c2ccccc2)=C(OC2CCCCC2)C1 | – | inconclusive: 1.13%
15 | Cc1ccc(C(=O)NCCC(=O)Nc2ccccc2C)cc1 | inconclusive: 29.1 µM [falling, single point] | –
16 | c1ccc(CCNc2ncnc3scc(C4COc5ccccc5O4)c23)cc1 (stereo unspecified) | – | inconclusive: 29.3%
17 | O=C(O)COc1ccccc1/C=N/NC(=O)CSc1nc2ccccc2s1 | – | inconclusive: 46.7%
18 | Cc1ccnc(NS(=O)(=O)c2ccc(NC(=O)C3CCCCC3)cc2)n1 | – | inconclusive: -0.217%
19 | CCOc1ccc(NC(=O)CSc2nnc(C34CC5CC(CC(C5)C3)C4)n2C)cc1 | – | inconclusive: 3.54%
20 | CCN(CC)CC(=O)Nc1ccccc1SCC(=O)Nc1ccsc1C(=O)OC | – | inconclusive: 25.9% [at 9.22 µM]
21 | Cn1c(=O)c(=O)n(C)c2cc(S(=O)(=O)N3CC(=O)N(CCc4ccccc4)C(=O)C3)ccc21 | – | inconclusive: 49.9%
22 | CC(C)Cc1nnc(NC(=O)C2=COCCO2)s1 | – | inactive
23 | Cc1csc2nc(O)c(C(=O)NC3CCCCC3)c(=O)n12 | inconclusive: 7.31 µM [falling, partial curve] | –
24 | CCN1CCN(c2nc3c(c(=O)n(C)c(=O)n3C)n2CCSc2ncccn2)CC1 | – | inconclusive: -87.7%
25 | CS(=O)(=O)c1ccc([C@@H](O)[C@@H](CF)NC(=O)C(Cl)Cl)cc1 | – | inconclusive: -0.307%
26 | COc1cccc(C(=O)NNC(=O)c2ccccc2)c1 | – | inconclusive: -28.6%

Nothing new here: two of the compounds above.
Row | Compound | Potency | lipid storage change, negative = inhibition
13 | CC1CN(S(=O)(=O)c2cccc(C(=O)Nc3ccccc3N3CCCCC3)c2)CC(C)O1 (stereo unspecified) | active: 23.1 µM | –
14 | CCOC(=O)C1=C(O)C(=O)NC(c2ccccc2)=C(OC2CCCCC2)C1 | – | inconclusive: 1.13%

(cont.)

Row | Compound | Potency | lipid storage change, negative = inhibition
27 | CCCC[C@]12Cc3ccccc3[C@H](O1)C1=C(O2)C(=O)c2ccccc2C1=O | inconclusive: 0.0266 µM [activator, full curve, poor fit] | –
28 | CC(C)CNC(=O)COC(=O)c1ccc(F)cc1Cl | – | inconclusive: -9.49%
29 | COCCCn1c(SCC(=O)N(C)C)nnc1-c1ccccc1 | – | inconclusive: 0.42%
30 | N=c1ccccn1CC(O)COc1ccccc1 (stereo unspecified) | – | inconclusive: -11.9%
31 | N#Cc1ccc(OCC(=O)Nc2ccncc2)cc1 | inconclusive: 0.461 µM [falling, partial curve, poor fit] | –
32 | CCOc1ccc(NC(=O)COC(=O)c2ccc3c(c2)C(=O)N(CCc2ccccc2)C3=O)cc1 | inconclusive: 6.51 µM [activator, single point] | –
33 | Cc1c(NS(=O)(=O)c2cccc(C(=O)NCc3ccc(Cl)cc3)c2)c(=O)n(-c2ccccc2)n1C | – | inconclusive: 60.7%
34 | COc1ccc(Cc2c(Cl)ncnc2Cl)cc1 | active: 18.4 µM | –
35 | CSc1ccccc1OCc1cc(C(=O)N2CCN(Cc3nccn3C)CC2)no1 | inconclusive: 29.1 µM [falling, single point] | –
36 | O=C(CN(C(=O)c1nsc(Cl)c1Cl)c1ccc(F)cc1)NC1CCCC1 | – | inconclusive: 25.5%
37 | COc1ccc(CCC(=O)Nc2nc3ccccc3[nH]2)cc1OC | inconclusive: 1.3 µM [rising, full curve] | –
38 | CC(C)C(=O)Nc1cccc(C(=O)Nc2cc([N+](=O)[O-])ccc2F)c1 | – | inconclusive: -8.83%
39 | CCc1c(C)sc(NC(=O)c2ccco2)c1C#N | inconclusive: 6.51 µM [activator, single point] | –
40 | COc1ccc(CCC(=O)N2CCN(S(=O)(=O)c3cccc(C(F)(F)F)c3)CC2)cc1OC | – | inconclusive: 12.8%
41 | O=C(CCC1CCCC1)N=C1SC2CS(=O)(=O)CC2N1Cc1ccccc1 (stereo unspecified) | inconclusive: 29.1 µM [falling, single point] | –
42 | O=C(NCC1CCCO1)c1cccc(NC(=O)c2ccccc2)c1 (stereo unspecified) | – | inconclusive: 0.601%
43 | Cc1csc(SCC(=O)Nc2cc(S(=O)(=O)N3CCOCC3)ccc2N2CCOCC2)n1 | inconclusive: 29.1 µM [falling, single point] | –
44 | Clc1ccc(OCc2cn3cccnc3n2)c2ncccc12 | – | inactive
45 | COc1cc(/C=N/NC(=O)CN2CCOCC2)ccc1OCc1ccccc1 | – | inconclusive: 15.8%
46 | O=C(Nc1ccc(S(=O)(=O)N2CCCC2)cc1)c1ccccc1 | – | inconclusive
47 | Cc1cc(C)nc(NS(=O)(=O)c2ccc(NC(=O)c3snnc3C)cc2)n1 | – | inconclusive: 495%
48 | CC(=O)Nc1sc2c(c1C(c1ccccn1)N1CCCC1)CCCC2 (stereo unspecified) | inconclusive: 29.1 µM [falling, single point] | –
49 | CCC1CCC2(CC1)NC(=O)N(CC(=O)Nc1ccc(OC)cc1)C2=O (stereo unspecified) | – | inconclusive: -1.56%
50 | O=[N+]([O-])c1ccc(OCC(O)CN(C2CCCCC2)C2CCCCC2)cc1 (stereo unspecified) | inconclusive: 29.1 µM [falling, partial curve, poor fit] | –
51 | C/C(CC(=O)Nc1ccc(F)cc1F)=N\NC(=O)C(=O)N1CCCCC1 | – | inconclusive: -34.9%
52 | CC(=O)Nc1ccc(NC(=O)COc2ccc(S(=O)(=O)N3CCCC3)cc2C)cc1 | inconclusive: 0.206 µM [activator, partial curve, poor fit] | –

Row | Compound | Potency | lipid storage change, negative = inhibition
53 | COc1cccc(NC(=O)CN(C)C(=O)COc2ccccc2Cc2ccccc2)c1 | – | inconclusive: -38.7%
54 | Cc1ccc(C(=O)N/N=C\c2cc3c(cc2Br)OCO3)s1 | inconclusive: 0.366 µM [rising, full curve] | –
55 | COc1ccc(Nc2nc(C)cc(C)c2C#N)cc1OC | – | inconclusive: 20.8% [at 9.22 µM]
56 | Cc1ncn(-c2ccc(C(=O)Oc3ccccc3)cn2)n1 | – | inconclusive: -43.9%
57 | CS(=O)(=O)N1N=C(c2ccccc2)CC1c1cccs1 (stereo unspecified) | – | inactive
58 | CCOC(=O)c1c(NC(=O)CSc2nnc(C)o2)sc(C)c1C | inconclusive: 0.0184 µM [activator, full curve, poor fit] | –
59 | CCCN1CCC(=O)N(CCN=[N+]=[N-])CC1 | inconclusive: 3.66 µM [activator, full curve] | –
60 | C=CCN1CC(C(=O)N2CCC(Cc3ccc(Cl)cc3)(C(=O)OCC)CC2)CC1=O (stereo unspecified) | – | inconclusive: 26.3%
61 | CCOC(=O)N1CCC(NC(=O)C(Cc2ccccc2)NC(=O)c2ccco2)CC1 (stereo unspecified) | – | inconclusive: -3.39%
62 | COc1cc(OC)cc(C2C(C#N)=C(N)Oc3n[nH]c(-c4cccnc4)c32)c1 (stereo unspecified) | inconclusive: 2.06 µM [activator, partial curve, poor fit] | –
63 | O=C(CN1CCSC1=O)N1CCN(S(=O)(=O)c2ccc(Cl)cc2)CC1 | inconclusive: 18.4 µM [activator, single point] | –
64 | COc1ccc(N(C(=O)c2ccc(Cl)cc2)C2=CC3CCC(C2)N3C)cc1 (stereo unspecified) | – | inconclusive: 20%
65 | N#CCC(=O)Nc1ccc(C(=O)OCC(=O)c2ccc3c(c2)OCO3)cc1 | – | inconclusive
66 | CC(NS(=O)(=O)c1ccc(F)cc1)C(=O)Nc1ccc2c(c1)OCCO2 (stereo unspecified) | inconclusive: 14.6 µM [falling, single point] | –
67 | O=C(NCc1ccc(F)cc1)c1cc(-c2ccncc2)nc2ccccc12 | – | inconclusive: -100%
68 | CCOc1ccc(C(=S)NC2CCCCC2)cc1 | – | inconclusive: -10.2%
69 | O=C(Nc1ccc2nc(-c3ccco3)[nH]c2c1)c1ccco1 | – | inconclusive: -21.2%
70 | CCC(C)(C)C(=O)O | inconclusive: 0.116 µM [activator, full curve, poor fit] | –
71 | Cc1ccc(Cl)cc1N1CCN(C(=O)Cn2ncn3cccc3c2=O)CC1 | inconclusive: 0.184 µM [activator, full curve] | –
72 | CN(CC(=O)NCCc1ccc(S(N)(=O)=O)cc1)S(=O)(=O)/C=C/c1ccccc1 | – | inconclusive: -15.5%
73 | O=C(CSc1nc(C(F)(F)F)cc(=O)[nH]1)N1CCOCC1 | – | inconclusive: -21.9%
74 | O=C(COC(=O)C1CC1)Nc1ccc(OC(F)F)cc1 | – | inconclusive: 7.24%
75 | CC(C)=CC1C(C(=O)Nc2ccc(S(=O)(=O)N3CCOCC3)cc2)C1(C)C (stereo unspecified) | inconclusive: 16.4 µM [cytotoxic, single point] | –
76 | Nc1nnnn1/N=C/c1ccc(Br)cc1 | – | inconclusive: 194%

Gathered by group, the entries above with a CF3 group (2)
Row | Compound | Potency | lipid storage change, negative = inhibition
40 | COc1ccc(CCC(=O)N2CCN(S(=O)(=O)c3cccc(C(F)(F)F)c3)CC2)cc1OC | – | inconclusive: 12.8%
73 | O=C(CSc1nc(C(F)(F)F)cc(=O)[nH]1)N1CCOCC1 | – | inconclusive: -21.9%

In a second layout: 2 of the compounds above.
Row,Compound,Potency,"lipid storage change, negative = inhibition"
55,COc1ccc(Nc2nc(C)cc(C)c2C#N)cc1OC,–,inconclusive: 20.8% [at 9.22 µM]
61,CCOC(=O)N1CCC(NC(=O)C(Cc2ccccc2)NC(=O)c2ccco2)CC1 (stereo unspecified),–,inconclusive: -3.39%

— PubChem BioAssay AID2685 (National Center for Advancing Translational Sciences (NCATS), 2010)
